Results are given in words; binding and its absence hold for the method and conditions named. In cells and extracts the contact can be indirect. A result given as binding can be weak or reduced; the word gives no strength. Where a sequence is shown, tags or fusion partners need not be part of it.
Target: T1, RNF138-Flag (human) (UniProt Q8WVD3)
T1 sequence: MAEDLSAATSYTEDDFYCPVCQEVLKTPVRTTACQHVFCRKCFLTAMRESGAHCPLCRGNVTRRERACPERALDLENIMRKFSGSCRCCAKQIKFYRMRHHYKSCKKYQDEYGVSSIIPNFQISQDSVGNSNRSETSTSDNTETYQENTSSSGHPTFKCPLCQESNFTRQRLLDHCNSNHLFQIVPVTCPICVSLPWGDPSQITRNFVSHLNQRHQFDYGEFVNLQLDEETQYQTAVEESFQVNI
Experiment: co-IP; HEK293T transfected with the indicated plasmids for 24 h; lysis buffer 20 mM Tris pH 7.5, 150 mM NaCl, 1% Triton X-100, 1 mM EDTA; Flag beads or the indicated antibody with protein A/G agarose, 4 °C overnight; immunoblot; for PTEN-IRF3 also with myc-RNF138 co-expressed or in RNF138-KO cells

binding: binds
Substance: IAD domain of IRF3 (domain or fragment)

Source: publication PMC10671598
